From publication PMC4646629

Molecular target: cYFP-6b (Agrobacterium)
Test: split reporter; BiFC: nYFP and cYFP fusions coexpressed in microbombarded N. benthamiana leaves, confocal microscopy 48 h later

Binder | binding
nYFP-VFP3 (protein, UniProt Q8VZI9 1-249) METTPETQSKTHRLPAGREDWWSEDATATLIEAWGDRYVNLNRGNLRQNDWKEVADAVNSSHGNGRPKTDVQCKNRIDTLKKKYKTEKAKPLSNWCFFDRLDFLIGPVMKKSSGAVVKSALMNPNLNPTGSKSTGSSLDDDDDDDDDDEEDDDDAGDWGFVVRKHRKVEDVDSSEGSAFRELARSILKLGEAFERIEGKKQQMMIELEKQRMEVAKELELQRMNMLMEMQLELEKSKLGKRRAASGKKL | binds
nYFP-VFP5 (protein, UniProt Q9FFG0 1-248) METTTPQSKSSVSHRPPLGREDWWSEEATATLVEAWGNRYVKLNHGNLRQNDWKDVADAVNSRHGDNSRKKTDLQCKNRVDTLKKKYKTEKAKLSPSTWRFYNRLDVLIGPVVKKSAGGVVKSAPFKNHLNPTGSNSTGSSLEDDDEDDDEVGDWEFVARKHPRVEEVDLSEGSTCRELATAILKFGEVYERIEGKKQQMMIELEKQRMEVTKEVELKRMNMLMEMQLEIEKSKHRKRASASGKKNSH | binds

No constants are given. Whether binding was seen depends on the method and setting. In cells and extracts the contact can be indirect. Binding can be weak; no strength is given. Sequences can lack the tags named with a protein.
